According to the supplement of paper PMC10849652:
The other results are listed elsewhere or left out.

Protein sequences, listed by entry. Tags and fused reporters are not part of them. Lines headed by an entry give the natural chain unless they say otherwise; changes in a name come on top.
UniProt Q7Z5L9: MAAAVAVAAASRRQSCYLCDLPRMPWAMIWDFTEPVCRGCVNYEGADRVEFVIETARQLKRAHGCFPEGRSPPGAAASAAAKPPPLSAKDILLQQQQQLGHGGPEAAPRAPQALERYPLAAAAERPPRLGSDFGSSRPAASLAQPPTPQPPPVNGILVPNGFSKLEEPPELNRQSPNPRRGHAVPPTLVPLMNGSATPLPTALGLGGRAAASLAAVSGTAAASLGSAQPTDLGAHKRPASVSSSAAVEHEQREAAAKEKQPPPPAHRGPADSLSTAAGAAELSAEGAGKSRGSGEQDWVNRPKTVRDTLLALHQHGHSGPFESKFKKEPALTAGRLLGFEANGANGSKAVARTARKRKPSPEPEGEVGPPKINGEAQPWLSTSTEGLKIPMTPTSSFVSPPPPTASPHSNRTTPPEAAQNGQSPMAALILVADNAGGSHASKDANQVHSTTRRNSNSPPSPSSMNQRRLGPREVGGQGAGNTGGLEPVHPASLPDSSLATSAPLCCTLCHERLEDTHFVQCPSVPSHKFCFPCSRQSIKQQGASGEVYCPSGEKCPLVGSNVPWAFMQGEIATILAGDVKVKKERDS
UniProt Q15811: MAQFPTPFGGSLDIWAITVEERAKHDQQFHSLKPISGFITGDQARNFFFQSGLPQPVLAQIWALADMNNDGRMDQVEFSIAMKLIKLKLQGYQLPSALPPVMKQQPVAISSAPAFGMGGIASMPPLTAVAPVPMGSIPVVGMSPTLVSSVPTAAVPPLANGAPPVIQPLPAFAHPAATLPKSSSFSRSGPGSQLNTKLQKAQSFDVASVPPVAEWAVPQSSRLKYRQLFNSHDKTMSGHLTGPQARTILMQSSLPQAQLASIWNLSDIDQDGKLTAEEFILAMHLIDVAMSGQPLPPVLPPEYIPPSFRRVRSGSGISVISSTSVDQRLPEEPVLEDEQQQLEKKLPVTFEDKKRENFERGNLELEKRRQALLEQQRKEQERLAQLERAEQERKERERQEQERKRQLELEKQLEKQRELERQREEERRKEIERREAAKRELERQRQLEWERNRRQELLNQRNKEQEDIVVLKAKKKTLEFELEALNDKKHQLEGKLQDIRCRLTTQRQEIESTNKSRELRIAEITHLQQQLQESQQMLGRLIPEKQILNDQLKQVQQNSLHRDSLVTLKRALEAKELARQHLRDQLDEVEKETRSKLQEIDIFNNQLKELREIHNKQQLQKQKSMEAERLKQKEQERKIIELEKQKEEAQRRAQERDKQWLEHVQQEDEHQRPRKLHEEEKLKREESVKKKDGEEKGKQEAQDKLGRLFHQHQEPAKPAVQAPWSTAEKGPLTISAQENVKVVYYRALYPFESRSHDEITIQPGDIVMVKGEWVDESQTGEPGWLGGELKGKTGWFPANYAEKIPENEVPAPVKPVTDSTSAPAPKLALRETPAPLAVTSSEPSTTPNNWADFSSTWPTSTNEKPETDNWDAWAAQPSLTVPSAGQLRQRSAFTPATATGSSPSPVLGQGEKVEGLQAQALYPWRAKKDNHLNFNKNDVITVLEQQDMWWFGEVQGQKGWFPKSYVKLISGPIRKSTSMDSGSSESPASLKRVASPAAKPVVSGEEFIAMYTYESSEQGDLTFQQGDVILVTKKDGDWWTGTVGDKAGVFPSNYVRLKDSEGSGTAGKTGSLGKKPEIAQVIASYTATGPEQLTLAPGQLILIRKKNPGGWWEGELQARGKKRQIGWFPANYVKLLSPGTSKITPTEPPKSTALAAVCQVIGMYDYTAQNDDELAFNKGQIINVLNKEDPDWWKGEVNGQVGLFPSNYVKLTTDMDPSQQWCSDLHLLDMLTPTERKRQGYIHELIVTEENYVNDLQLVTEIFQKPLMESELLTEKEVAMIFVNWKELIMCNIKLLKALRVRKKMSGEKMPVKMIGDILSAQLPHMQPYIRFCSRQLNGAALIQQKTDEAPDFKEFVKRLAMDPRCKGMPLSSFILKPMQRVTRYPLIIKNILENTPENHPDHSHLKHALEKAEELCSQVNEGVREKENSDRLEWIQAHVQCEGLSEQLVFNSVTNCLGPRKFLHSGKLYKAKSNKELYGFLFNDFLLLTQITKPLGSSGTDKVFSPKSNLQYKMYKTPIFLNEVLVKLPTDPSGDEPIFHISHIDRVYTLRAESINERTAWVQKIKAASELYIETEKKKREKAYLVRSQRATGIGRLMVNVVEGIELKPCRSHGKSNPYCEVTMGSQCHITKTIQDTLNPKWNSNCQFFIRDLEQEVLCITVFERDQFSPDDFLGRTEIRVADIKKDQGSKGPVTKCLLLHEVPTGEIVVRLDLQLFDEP
UniProt Q9Y597: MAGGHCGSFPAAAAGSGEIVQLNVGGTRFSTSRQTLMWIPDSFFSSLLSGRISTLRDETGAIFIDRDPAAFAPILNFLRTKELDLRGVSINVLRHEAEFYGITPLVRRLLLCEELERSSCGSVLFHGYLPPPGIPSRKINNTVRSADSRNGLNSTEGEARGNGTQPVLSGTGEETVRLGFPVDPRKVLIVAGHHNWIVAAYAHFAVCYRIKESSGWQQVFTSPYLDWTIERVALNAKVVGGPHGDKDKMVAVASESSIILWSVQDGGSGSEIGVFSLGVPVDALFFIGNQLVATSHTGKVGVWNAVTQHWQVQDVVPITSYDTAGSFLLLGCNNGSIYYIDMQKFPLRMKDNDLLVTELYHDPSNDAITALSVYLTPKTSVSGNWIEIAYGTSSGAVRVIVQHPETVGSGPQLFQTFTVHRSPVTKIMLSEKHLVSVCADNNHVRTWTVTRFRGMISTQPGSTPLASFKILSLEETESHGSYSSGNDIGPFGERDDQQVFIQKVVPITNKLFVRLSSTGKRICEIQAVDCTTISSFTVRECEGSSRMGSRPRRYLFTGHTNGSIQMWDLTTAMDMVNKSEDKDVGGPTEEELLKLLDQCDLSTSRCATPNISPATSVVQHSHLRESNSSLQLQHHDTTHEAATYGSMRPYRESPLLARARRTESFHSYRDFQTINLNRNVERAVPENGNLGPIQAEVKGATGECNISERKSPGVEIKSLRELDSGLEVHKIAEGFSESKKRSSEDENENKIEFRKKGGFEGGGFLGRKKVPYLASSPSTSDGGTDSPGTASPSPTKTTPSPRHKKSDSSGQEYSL
UniProt P05161, whole entry, looked up: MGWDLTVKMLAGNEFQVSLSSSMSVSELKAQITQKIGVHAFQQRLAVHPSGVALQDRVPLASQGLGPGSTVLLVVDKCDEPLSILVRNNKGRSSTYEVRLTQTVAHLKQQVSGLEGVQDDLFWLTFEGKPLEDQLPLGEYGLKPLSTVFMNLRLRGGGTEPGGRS
UniProt Q86U28: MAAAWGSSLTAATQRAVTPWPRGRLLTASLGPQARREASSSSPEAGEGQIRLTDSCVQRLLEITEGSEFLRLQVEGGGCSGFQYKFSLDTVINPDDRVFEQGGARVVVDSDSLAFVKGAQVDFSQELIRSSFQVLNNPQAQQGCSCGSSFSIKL
UniProt Q96SY0, whole entry, looked up: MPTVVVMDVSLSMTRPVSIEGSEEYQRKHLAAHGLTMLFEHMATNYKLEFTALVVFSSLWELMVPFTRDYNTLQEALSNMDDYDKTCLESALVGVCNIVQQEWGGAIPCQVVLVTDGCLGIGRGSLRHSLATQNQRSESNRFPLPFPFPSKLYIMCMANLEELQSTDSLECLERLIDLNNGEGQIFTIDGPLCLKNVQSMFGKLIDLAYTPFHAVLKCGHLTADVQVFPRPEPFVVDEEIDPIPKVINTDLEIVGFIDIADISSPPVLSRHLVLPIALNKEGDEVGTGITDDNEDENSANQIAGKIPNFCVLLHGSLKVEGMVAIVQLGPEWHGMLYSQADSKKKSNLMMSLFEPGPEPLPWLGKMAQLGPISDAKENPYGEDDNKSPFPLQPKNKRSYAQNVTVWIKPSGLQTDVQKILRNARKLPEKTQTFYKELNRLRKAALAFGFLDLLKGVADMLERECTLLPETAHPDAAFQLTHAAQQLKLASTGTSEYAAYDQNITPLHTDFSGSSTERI
UniProt O14713: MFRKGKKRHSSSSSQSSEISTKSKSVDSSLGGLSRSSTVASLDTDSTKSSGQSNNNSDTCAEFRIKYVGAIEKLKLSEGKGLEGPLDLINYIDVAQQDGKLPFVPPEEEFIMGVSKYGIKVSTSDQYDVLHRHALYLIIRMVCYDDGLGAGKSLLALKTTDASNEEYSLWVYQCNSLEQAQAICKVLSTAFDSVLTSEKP
UniProt Q4G0X4: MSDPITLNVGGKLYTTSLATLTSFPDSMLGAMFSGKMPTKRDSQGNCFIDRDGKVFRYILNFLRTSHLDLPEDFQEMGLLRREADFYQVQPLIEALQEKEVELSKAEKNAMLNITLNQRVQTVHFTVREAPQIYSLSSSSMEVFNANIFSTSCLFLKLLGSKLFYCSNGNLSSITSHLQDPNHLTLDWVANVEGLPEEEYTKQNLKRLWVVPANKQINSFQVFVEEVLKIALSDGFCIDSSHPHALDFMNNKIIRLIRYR
UniProt Q92993, whole entry, looked up: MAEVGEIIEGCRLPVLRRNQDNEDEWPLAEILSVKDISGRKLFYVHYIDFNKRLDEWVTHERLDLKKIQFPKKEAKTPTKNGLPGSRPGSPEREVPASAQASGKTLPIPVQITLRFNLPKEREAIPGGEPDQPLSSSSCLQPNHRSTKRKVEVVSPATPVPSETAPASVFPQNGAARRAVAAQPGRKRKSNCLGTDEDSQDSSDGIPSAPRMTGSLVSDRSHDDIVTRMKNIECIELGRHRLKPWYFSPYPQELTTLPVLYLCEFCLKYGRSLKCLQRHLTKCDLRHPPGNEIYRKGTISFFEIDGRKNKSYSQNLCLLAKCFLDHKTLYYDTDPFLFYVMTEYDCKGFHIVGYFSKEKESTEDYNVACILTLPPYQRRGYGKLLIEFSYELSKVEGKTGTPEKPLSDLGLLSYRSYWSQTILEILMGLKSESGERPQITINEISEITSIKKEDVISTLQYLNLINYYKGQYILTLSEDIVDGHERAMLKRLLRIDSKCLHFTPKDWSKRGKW
UniProt P01591, whole entry, looked up: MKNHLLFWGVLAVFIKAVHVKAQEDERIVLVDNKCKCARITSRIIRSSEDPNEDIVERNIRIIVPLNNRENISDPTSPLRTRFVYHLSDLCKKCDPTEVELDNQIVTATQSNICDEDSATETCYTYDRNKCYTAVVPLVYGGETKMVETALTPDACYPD
UniProt Q9Y573: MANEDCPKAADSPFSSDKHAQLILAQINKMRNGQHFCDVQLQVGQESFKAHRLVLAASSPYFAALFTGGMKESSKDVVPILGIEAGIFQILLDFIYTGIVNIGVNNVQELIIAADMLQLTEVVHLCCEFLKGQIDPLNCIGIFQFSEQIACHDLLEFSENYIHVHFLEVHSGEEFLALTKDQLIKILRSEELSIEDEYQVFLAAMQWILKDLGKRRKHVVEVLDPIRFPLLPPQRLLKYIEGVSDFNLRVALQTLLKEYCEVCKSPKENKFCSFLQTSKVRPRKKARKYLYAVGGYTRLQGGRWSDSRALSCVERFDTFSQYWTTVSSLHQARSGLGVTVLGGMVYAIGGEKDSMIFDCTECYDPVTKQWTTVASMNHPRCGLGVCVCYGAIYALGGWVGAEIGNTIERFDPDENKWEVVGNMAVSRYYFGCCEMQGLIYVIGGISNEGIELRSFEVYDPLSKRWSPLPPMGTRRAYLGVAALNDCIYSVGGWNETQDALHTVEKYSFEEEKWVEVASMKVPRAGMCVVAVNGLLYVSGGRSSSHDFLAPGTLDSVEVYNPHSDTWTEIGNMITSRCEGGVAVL
UniProt Q9H1K1: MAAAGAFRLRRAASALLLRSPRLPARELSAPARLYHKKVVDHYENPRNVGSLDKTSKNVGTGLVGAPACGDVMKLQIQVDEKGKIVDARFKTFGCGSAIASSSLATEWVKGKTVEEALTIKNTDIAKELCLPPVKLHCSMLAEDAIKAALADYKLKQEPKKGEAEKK
UniProt O95279: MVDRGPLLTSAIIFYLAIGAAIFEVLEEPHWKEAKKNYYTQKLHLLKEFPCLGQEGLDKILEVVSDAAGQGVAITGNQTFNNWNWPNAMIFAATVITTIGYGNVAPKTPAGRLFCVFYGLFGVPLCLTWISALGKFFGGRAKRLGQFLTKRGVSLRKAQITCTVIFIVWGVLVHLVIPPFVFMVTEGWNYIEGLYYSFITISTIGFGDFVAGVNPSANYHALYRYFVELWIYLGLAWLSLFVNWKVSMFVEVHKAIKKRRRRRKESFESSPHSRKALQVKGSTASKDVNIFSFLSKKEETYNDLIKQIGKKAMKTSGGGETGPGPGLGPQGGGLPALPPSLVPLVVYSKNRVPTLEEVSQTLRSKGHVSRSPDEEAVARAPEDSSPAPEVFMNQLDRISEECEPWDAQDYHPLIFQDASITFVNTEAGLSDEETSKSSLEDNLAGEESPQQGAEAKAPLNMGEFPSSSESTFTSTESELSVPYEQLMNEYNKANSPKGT
UniProt O76095: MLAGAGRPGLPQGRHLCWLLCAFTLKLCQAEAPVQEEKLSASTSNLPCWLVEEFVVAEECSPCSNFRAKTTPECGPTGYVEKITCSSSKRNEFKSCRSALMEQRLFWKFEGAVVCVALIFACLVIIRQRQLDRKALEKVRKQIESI

Legend:
Experiment in all cases: log2 fold change, soluble protein after heating vs DMSO (PISA); higher = thermal stabilisation; K562 lysate, 10 uM; active = over 0.2 and 3.5 SD of the protein, either way, in both replicates (recomputed)
erlotinib = compound: C#Cc1cccc(Nc2ncnc3cc(OCCOC)c(OCCOC)cc23)c1 [erlotinib]
Procedure, shortened: (§1)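 To prepare the extract, K562 pellets were dounce-homogenised in PBS pH 7.4 with 1 mM MgCl2, giving crude material at 1 mg/mL protein. This was treated with 10 μM compound for 30 min, then heated in aliquots for 3 min over 48°C-58°C before pooling and addition of NP-40 to 0.5% at 4°C. Centrifugation at 21,000xg for 90 min left soluble protein in the supernatant, which TMTpro 16plex LC-MS/MS quantified with equalised channel sums. Results are log-two fold changes in thermal stability compared with solvent controls, from duplicates.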

[1] = compound: C/C(=N\NC(=O)C1=CC(=CC=C1)S(=O)(=O)N2CCOCC2)/C3=C(C=CC(=C3)Cl)O
Procedure, shortened: as §1

[2] = compound: C1=CC(=CC=C1C2=NC3=C(N2)C=C(C=C3)C(=O)N)OC4=CC=C(C=C4)Cl
Procedure, shortened: as §1

[3] = compound: C1=CC2=C(C=CC(=C2)/C=C\3/C(=O)NC(=NCC4=CC=CS4)S3)N=C1
Procedure, shortened: as §1

[4] = compound: C1=CC2=NC=CN=C2C=C1/C=C/3\C(=O)NC(=O)S3
Procedure, shortened: as §1

[5] = compound: C1=CC=C(C=C1)C2=NC(=C(N2)C3=CC=NC=C3)C4=CC(=C(C=C4)Cl)O
Procedure, shortened: as §1

[6] = compound: C1=CC=C2C(=C1)C3=NNC4=CC=CC(=C43)C2=O
Procedure, shortened: as §1

[7] = compound: C1CCN(C1)C(=O)NC2=CC=CC(=C2)NC3=NC=C(C(=N3)NCCC4=CN=CN4)Br
Procedure, shortened: as §1

[8] = compound: C1CN(CCC1(CC2=CC=C(C=C2)Cl)N)C3=NC=NC4=C3C=CN4
Procedure, shortened: as §1

IRAK-1-4 Inhibitor I = compound: C1COCCN1CCN2C3=CC=CC=C3N=C2NC(=O)C4=CC(=CC=C4)[N+](=O)[O-] [IRAK-1-4 Inhibitor I]
Procedure, shortened: as §1

Measured: log2 fold change

ITGA5 (UniProt P08648)
inactive: erlotinib 0.007 | [1] -0.07 | [2] 0.001 | [3] 0 | [4] -0.02 | [5] -0.005 | [6] -0.015 | [7] 0 | [8] 0.008 | IRAK-1-4 Inhibitor I 0.018

KDM3A (UniProt Q9Y4C1)
inactive: erlotinib -0.017 | [1] 0.043 | [2] -0.036 | [3] 0.001 | [4] -0.015 | [5] 0.021 | [6] 0.084 | [7] -0.031 | [8] 0.022 | IRAK-1-4 Inhibitor I -0.005

IRF2BP2 (UniProt Q7Z5L9)
inactive: erlotinib -0.049 | [1] 0.026 | [2] 0.023 | [3] 0.002 | [4] -0.015 | [5] 0.018 | [6] -0.012 | [7] -0.018 | [8] -0.011 | IRAK-1-4 Inhibitor I 0.037

JMJD6 isoform 3 (UniProt Q6NYC1)
inactive: erlotinib -0.052 | [1] -0.239 | [2] 0.062 | [3] 0.001 | [4] -0.018 | [5] -0.007 | [6] 0.083 | [7] 0.017 | [8] 0.036 | IRAK-1-4 Inhibitor I 0.009

ITSN1 isoform 8 (UniProt Q15811)
inactive: erlotinib -0.018 | [1] -0.007 | [2] 0.039 | [3] 0.002 | [4] -0.151 | [5] 0.054 | [6] 0.051 | [7] -0.06 | [8] 0.008 | IRAK-1-4 Inhibitor I 0.022

IRF2BPL (UniProt Q9H1B7)
inactive: erlotinib 0.024 | [1] 0.102 | [2] 0.037 | [3] 0.022 | [4] -0.034 | [5] 0.002 | [6] -0.008 | [7] -0.002 | [8] 0.027 | IRAK-1-4 Inhibitor I -0.027

KCTD3 (UniProt Q9Y597)
inactive: erlotinib -0.006 | [1] 0.005 | [2] 0.031 | [3] 0.011 | [4] -0.019 | [5] -0.002 | [6] -0.056 | [7] -0.034 | [8] 0.023 | IRAK-1-4 Inhibitor I -0.021

IWS1 (UniProt Q96ST2)
inactive: erlotinib -0.022 | [1] -0.1 | [2] 0.027 | [3] 0.061 | [4] -0.022 | [5] 0.016 | [6] -0.035 | [7] -0.002 | [8] 0.002 | IRAK-1-4 Inhibitor I -0.002

IPO7 (UniProt O95373)
inactive: erlotinib 0.023 | [1] -0.005 | [2] 0 | [3] -0.018 | [4] 0.009 | [5] -0.014 | [6] 0.006 | [7] 0 | [8] 0.032 | IRAK-1-4 Inhibitor I 0.01

INTS9 (UniProt Q9NV88)
inactive: erlotinib 0.012 | [1] -0.1 | [2] 0.002 | [3] -0.041 | [4] -0.02 | [5] -0.016 | [6] 0.001 | [7] -0.066 | [8] 0.007 | IRAK-1-4 Inhibitor I 0.016

KAZN (UniProt Q674X7)
inactive: erlotinib 0.002 | [1] -0.061 | [2] 0.165 | [3] 0 | [4] -0.011 | [5] -0.023 | [6] -0.022 | [7] -0.057 | [8] 0.039 | IRAK-1-4 Inhibitor I 0.063

KBTBD4 isoform 2 (UniProt Q9NVX7)
inactive: erlotinib 0.09 | [1] 0.013 | [2] 0.036 | [3] 0.013 | [4] -0.096 | [5] 0.016 | [6] -0.073 | [7] -0.028 | [8] 0.013 | IRAK-1-4 Inhibitor I -0.017

ISG15 (UniProt P05161)
inactive: erlotinib -0.011 | [1] -0.204 | [2] 0.107 | [3] 0.012 | [4] -0.025 | [5] -0.031 | [6] -0.019 | [7] -0.019 | [8] 0.024 | IRAK-1-4 Inhibitor I -0.029

KATNAL1 (UniProt Q9BW62)
inactive: erlotinib 0.306 | [1] -0.034 | [2] -0.16 | [3] -0.036 | [4] 0.015 | [5] 0.086 | [6] 0.022 | [7] -0.11 | [8] -0.021 | IRAK-1-4 Inhibitor I 0.058

ISCA2 (UniProt Q86U28)
inactive: erlotinib -0.021 | [1] 0.104 | [2] 0.028 | [3] 0.014 | [4] -0.046 | [5] 0.031 | [6] 0.05 | [7] -0.006 | [8] 0.025 | IRAK-1-4 Inhibitor I 0.024

INTS14 (UniProt Q96SY0)
inactive: erlotinib 0.007 | [1] -0.13 | [2] 0.025 | [3] 0.008 | [4] -0.012 | [5] -0.001 | [6] 0.018 | [7] -0.01 | [8] 0 | IRAK-1-4 Inhibitor I 0.006

ITGB1BP1 (UniProt O14713)
inactive: erlotinib 0 | [1] -0.041 | [2] -0.065 | [3] 0.086 | [4] -0.103 | [5] -0.018 | [6] -0.026 | [7] 0.053 | [8] 0.205 | IRAK-1-4 Inhibitor I -0.054

ITGAV (UniProt P06756)
inactive: erlotinib -0.025 | [1] -0.034 | [2] 0.032 | [3] 0.006 | [4] -0.038 | [5] -0.024 | [6] -0.06 | [7] -0.021 | [8] 0.018 | IRAK-1-4 Inhibitor I 0.031

KCTD21 (UniProt Q4G0X4)
inactive: erlotinib 0.001 | [1] 0.004 | [2] 0.041 | [3] -0.072 | [4] -0.069 | [5] 0.078 | [6] 0.002 | [7] -0.018 | [8] 0.061 | IRAK-1-4 Inhibitor I -0.157

ITGA2B (UniProt P08514)
inactive: erlotinib 0.068 | [1] -0.049 | [2] -0.225 | [3] -0.045 | [5] -0.027 | [6] -0.163 | IRAK-1-4 Inhibitor I 0.143

IQGAP3 (UniProt Q86VI3)
inactive: erlotinib -0.064 | [1] 0.115 | [2] -0.017 | [3] -0.047 | [4] -0.062 | [5] 0.002 | [6] -0.143 | IRAK-1-4 Inhibitor I -0.065

KAT14 (UniProt Q9H8E8)
inactive: erlotinib 0.05 | [1] 0.205 | [2] -0.06 | [3] -0.012 | [4] -0.102 | [6] 0.035 | [7] -0.031 | [8] 0.013

KAT5 isoform 3 (UniProt Q92993)
inactive: erlotinib -0.006 | [1] 0.028 | [2] -0.018 | [3] 0.036 | [4] 0.008 | [6] 0.114 | [7] 0.155 | [8] 0.158

IPO5 (UniProt H0Y3V4)
inactive: erlotinib 0.057 | [1] -0.382 | [2] 0.138 | [3] 0.207 | [5] 0.08 | [6] 0.382 | [7] -0.219 | [8] 0.107 | IRAK-1-4 Inhibitor I -0.017

ISOC1 (UniProt Q96CN7)
inactive: erlotinib -0.008 | [1] 0.009 | [2] 0.007 | [3] -0.015 | [4] -0.019 | [5] 0.004 | [6] 0.007 | [7] 0.001 | [8] -0.019 | IRAK-1-4 Inhibitor I 0.016

JCHAIN (UniProt P01591)
inactive: erlotinib -0.515 | [2] -0.241

IRF3 (UniProt Q14653)
inactive: erlotinib 0.046 | [1] -0.003 | [2] 0.007 | [3] -0.029 | [4] 0.034 | [5] 0.002 | [6] 0 | [7] 0.002 | [8] 0.013 | IRAK-1-4 Inhibitor I 0.032

KCMF1 (UniProt Q9P0J7)
inactive: erlotinib -0.019 | [1] 0.041 | [2] -0.013 | [3] 0.022 | [4] 0.021 | [5] 0.067 | [6] 0.016 | [7] 0 | [8] 0.011 | IRAK-1-4 Inhibitor I -0.026

IPP (UniProt Q9Y573)
inactive: erlotinib -0.04 | [1] -0.192 | [2] -0.017 | [3] -0.181 | [5] 0.025 | [6] -0.105 | [7] 0.179 | [8] 0.041 | IRAK-1-4 Inhibitor I -0.035

ISCU (UniProt Q9H1K1)
inactive: erlotinib -0.043 | [1] 0.021 | [2] 0.014 | [3] -0.023 | [4] -0.009 | [5] -0.013 | [6] 0.023 | [7] 0.047 | [8] -0.023 | IRAK-1-4 Inhibitor I 0.002

KCNK5 (UniProt O95279)
inactive: erlotinib -0.177 | [1] 0.049 | [2] -0.133 | [3] 0.265 | [4] -0.167 | [6] -0.151

JTB (UniProt O76095)
inactive: erlotinib -0.07 | [1] 0.078 | [2] -0.012 | [3] 0.101 | [4] -0.139 | [5] 0.015 | [6] -0.212 | [7] 0.017 | [8] -0.003 | IRAK-1-4 Inhibitor I -0.003

2 entries picked at random from the list so far, as already listed:
IPP (UniProt Q9Y573)
inactive: erlotinib -0.04 | [1] -0.192 | [2] -0.017 | [3] -0.181 | [5] 0.025 | [6] -0.105 | [7] 0.179 | [8] 0.041 | IRAK-1-4 Inhibitor I -0.035

JTB (UniProt O76095)
inactive: erlotinib -0.07 | [1] 0.078 | [2] -0.012 | [3] 0.101 | [4] -0.139 | [5] 0.015 | [6] -0.212 | [7] 0.017 | [8] -0.003 | IRAK-1-4 Inhibitor I -0.003
